Data as given in PubChem BioAssay AID720505 (Drosophila RNAi Screening Center, 2013).

- Aim: 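Genes needed for store-operated calcium entry in fly cells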 (primary screen)
- Cell system: Drosophila S2R+ cells
- Reagent: long dsRNA against Drosophila genes
- Challenge: thapsigargin (2 µM) in calcium-free buffer to empty internal stores, then 2 mM calcium added back
- Measured: 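Stores emptied by 2 µM thapsigargin without calcium, then 2 mM calcium re-added; fluo-4 fluorescence followed by FLIPR in 384-well plates, per-well averaged endpoint, raw; two screen passes, some wells retested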
- Scale: calcium signal and retest calcium signal: higher = more calcium entry after store depletion
- Active means: 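Knock-downs counted as hits when calcium entry dropped relative to STIM1 positive and Rho1 negative controls present on each plate; roughly 1500 genes called, with reductions of differing size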
- Meaning of the calls: active = called as lowering calcium entry; inactive = not called
In all, the deposit lists about 20,000 reagents; shown is a random part of those with a known target gene and a result. Over the whole deposit, about 2,100 (10%) are marked active. 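Raw plate signals without normalisation; calls rest on control-based scores that were not deposited; replicate 2 separates called from uncalled poorly.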 Reagents against one gene are numbered here. A plus sign joins genes that one reagent is predicted to hit. Not given: the amount of reagent, the time to read-out.

no.	Gene	reagent no.	calcium signal, replicate 1	calcium signal, replicate 2	retest calcium signal, replicate 1	retest calcium signal, replicate 2	Outcome
1	CG42685	1	75.5	114	164	135	active
2	OstDelta	1	168	129			inactive
3	CG7326	1	94.6	95.9			inactive
4	CG13170	1	88.1	112			inactive
5	CG30046	1	138	201			inactive
6	sncRNA:430e + His2A:CG33859 + His2A:CG33817 + 37 more	1	49.4	75.1			active
7	mth	1	154	90.5			inactive
8	mahe	1	197	168			inactive
9	Or33a	1	73.2	103			active
10	CG14893	1	114	116			inactive
11	CG15130	1	228	80.5			inactive
12	CG15614	1	144	159			inactive
13	Pkn + Tsen15	1	102	161			inactive
14	CG15498	1	160	129			inactive
15	xmas-1 (retired record)	1	90.5	119			inactive
16	GstO3	1	82.6	75.9			inactive
17	CG33341	1	96.4	196			inactive
18	CG13693	1	180	108			inactive
19	CG4907	1	192	126			inactive
20	CG31496	1	101	171			inactive
21	CG32988	1	82.3	80.3			active
22	aspr	1	191	97			inactive
23	aspr	2	196	105			inactive
24	RhoGAP5A	1	154	93			inactive
25	Damm	1	107	167			inactive
26	CG33095	1	203	157			inactive
27	CG14000	1	209	102			inactive
28	CG11458	1	109	184			inactive
29	Mur11Da	1					active
30	CG9782	1	108	123			inactive
31	CG9782	2	105	98.7			inactive
32	Alp9	1	66.4	108			active
33	CG9948	1	92.9	98.2			inactive
34	CG14417	1	160	157			inactive
35	Lam	1	76.9	90			inactive
36	CG14965	1	129	131			inactive
37	CG33642	1	174	88.8			inactive
38	CG7987	1	117	123			inactive
39	alphaTub67C	1	53.6	86.4			active
40	CG34193	1	136	112			inactive
41	dpr15	1					active
42	dpr15	2	92.1	76.4			inactive
43	dpr15	3	67	107			active
44	CG4502	1	81.5	150			inactive
45	CG4502	2	79	152			inactive
46	CG14220	1	73.5	163			active
47	GluRIA	1	71.7	75.4			inactive
48	wun	1	134	171			inactive
49	pie	1	95.1	101			inactive

5 entries from above, set out differently.
| Gene | reagent no. | calcium signal, replicate 1 | calcium signal, replicate 2 | retest calcium signal, replicate 1 | retest calcium signal, replicate 2 | Outcome |
| --- | --- | --- | --- | --- | --- | --- |
| CG4502 | 1 | 81.5 | 150 | – | – | inactive |
| CG4502 | 2 | 79 | 152 | – | – | inactive |
| CG14220 | 1 | 73.5 | 163 | – | – | active |
| GluRIA | 1 | 71.7 | 75.4 | – | – | inactive |
| wun | 1 | 134 | 171 | – | – | inactive |

The listing continues.
no.	Gene	reagent no.	calcium signal, replicate 1	calcium signal, replicate 2	retest calcium signal, replicate 1	retest calcium signal, replicate 2	Outcome
50	Nup43	1	193	199			inactive
51	SLIRP1 + anox	1	160	127			inactive
52	CG3698	1	102	103			inactive
53	RPA3	1	68.2	91.6			inactive
54	CDase	1	108	113			inactive
55	sns	1	119	194			inactive
56	sns	2	90	166			inactive
57	sns	3	132	169			inactive
58	sns	4	108	135			inactive
59	sns	5	83	101			inactive
60	sns	6	95.6	138			inactive
61	COX7AL	1	118	111			inactive
62	dimm	1	243	89.5			inactive
63	CG43260 (retired record)	1	110	85.5			inactive
64	Coq4 + frc	1	130	134			inactive
65	Coq4 + frc	2	65.5	107			inactive
66	obst-G	1	119	112			inactive
67	mRpL12	1	145	99.7			inactive
68	CG6707	1	103	106			inactive
69	SIFa	1	166	207			inactive
70	CG14219	1	141	91.5			inactive
71	Mlp60A	1	93.9	102			inactive
72	Mlp60A	2	50.2	162			active
73	Mlp60A	3	94.9	220			inactive
74	CG9471	1	136	105			inactive
75	barr	1	97.3	92.8			inactive
76	Dad1	1	160	177			inactive
77	CG10914	1	129	151			inactive
78	mthl3	1	90.4	127			inactive
79	salt	1	84.3	157			inactive
80	AlkB	1	91.5	163			inactive
81	Eglp2	1	150	93.6			inactive
82	Ntl	1	117	119			inactive
83	CG17739	1	224	102			inactive
